This is one part of the list.
Assay: anaerobic choline-dependent bacterial growth inhibition – minimal medium, absorbance (AID 1963822)
Settings: Gram-negative bacterium anaerobic choline minimal medium, measured here: choline growth z-score, timepoint 1, stronger effect = lower value

Row | Compound | z-score
1 | CN(C(=O)Cc1ccccc1)[C@@H]1CC[C@]2(CCCO2)C[C@H]1N1CCCC1 | 0.4
2 | NC(=O)Nc1ccc([As](=O)(O)O)cc1 | 0.27
3 | CN(C(=O)Cc1ccc(Cl)c(Cl)c1)[C@@H]1CC[C@]2(CCCO2)C[C@H]1N1CCCC1 | 0.01
4 | CN(C(=O)Cc1ccc(Cl)c(Cl)c1)[C@@H]1CCCC[C@H]1N1CCCC1 | -0.18
5 | CN(C)CCS | -1.54
6 | O=C(O[C@H]1CN2CCC1CC2)C1NCc2ccccc2[C@@H]1c1ccccc1 (stereo not given in full) | 0.6
7 | O=P(O)(O)F | 0.2
8 | C/C1=C2N=C(/C=C3N=C(/C(C)=C4\[N-][C@@](C)([C@@H]5N=C1[C@](C)(CCC(=O)NC[C@@H](C)OP(=O)([O-])O[C@H]1[C@@H](O)[C@@H](n6cnc7cc(C)c(C)cc76)O[C@@H]1CO)[C@H]5CC(N)=O)[C@@](C)(CC(N)=O)[C@@H]4CCC(N)=O)[C@@](C)(CC(N)=O)[C@@H]\3CCC(N)=O)C(C)(C)[C@@H]/2CCC(N)=O.[C-]#N.[Co+3] | 0.39
9 | CN(C(=O)Cc1ccc(Cl)c(Cl)c1)[C@@H]1CCCC[C@@H]1N1CCCC1 | -0.31
10 | O=C(OC1CN2CCC1CC2)c1ccccc1 (stereo not given) | 0.18

— PubChem BioAssay AID1963822 (ICCB-Longwood Screening Facility, Harvard Medical School, 2024)
